The list shows a part of the results. Bounds are passed on as bounds.

Experimental findings from PMC10163288 are described below.

First the molecules themselves.
B1: il10ra_site1_normal_mot_HHH_b1_05083_af2_000000148_0001_42_57_H_._HHH_b2_01401_af2_0001_0000100010_0000001_0_af2pred_0001 (protein)
chain: SSSSSEEVQEIIEIIREAAKANSEGDKEEAKRLLEEAEELAEELGNVLLRFIIEWLLRRISSSSS
B2: il10ra_site1_sap_22_mot_HHH_b1_07466_000000214_0001_1_19_H_._HHH_b2_06153_0001_0000200020_0000002_0_0001 (protein)
chain: SSSSDEEEELVEAALRLVEQIRKWGDPRAARFHLWSAEFVAREINNPELERLVEELEEELNSSSS
B3: il10ra_site1_normal_mot_HHH_b2_02053_af2_000000006_0001_3_19_H_._HHH_b2_05497_0001_0000200022_0000003_0 (protein)
chain: SSSSSEEREELYKLLRKALELFAKGDPEEAREVLEEALQLAEELNNRLFLFSLRHLLRALSSSSS
B4: il10ra_site1_sap_16_mot_HHH_b1_04693_000000238_0001_19_36_H_._HHH_b2_05159_0001_0000200012_0000001_0_0001 (protein)
chain: SSSSSEIEEYREEIEKLLEEGNWEEAMRLLVEAVRLALRLGDPELLRELWELIKEVAERRQSSSS
B5: il10ra_site1_sap_22_mot_HHH_b1_03314_af2_000000278_0001_42_55_H_._HHH_b2_04189_0001_0000400020_0000001_0_0001 (protein)
chain: SSSSDLKEEAEELAEEAQELAEERGDRAAVYLLRQALEALRLAGDPRAARQLYELARIVLSSSSS
B6: il10ra_site1_normal_mot_HHH_b2_05813_000000266_0001_1_19_H_._HHH_b1_07280_0001_0000100002_0000001_0_af2pred_0001 (protein)
chain: SSSSSLEEEVLELIIEAQRLLQKGNPEEAERVLEEALEIAREKGNPRLAHIIERLEEMVERSSSS
B7: il10ra_site1_normal_mot_745ba417a8ead33aea5db1974d5d2f48_0001_1_af2_000000024_0001_16_30_H_._HHH_b2_02882_0001_0000100006_0000001_0_af2pred_0001 (protein)
chain: SSSSDEEKLRLALKSLKHLLELGDEERAKLAVEILLRTAEYNGDEEVREILEEILERLENSSSSS
B8: il10ra_site1_normal_mot_HHH_b1_01827_000000263_0001_1_19_H_._HHH_b2_07433_0001_0000500029_0000001_0_af2pred_0001 (protein)
chain: SSSSSTEEVERVIKLIRRALEIEDEEERRRLLEEAVELAEEGGNLVLLISARFALEDVEQSSSSS
B9: il10ra_site1_normal_mot_HHH_b2_08265_af2_000000206_0001_22_38_H_._HHH_b2_06195_0001_0000100007_0000001_0 (protein)
chain: SSSSSDEEVEELEREIRELLEEGDPEEALRLLQRLVQLAFRLSDQEAIRIAWELAKLIASSSSSS
B10: il10ra_site1_sap_22_mot_HHH_b1_07803_af2_000000186_0001_43_57_H_._09770d796a13084421b44ad29b674de3_0001_1_0001_0000200005_0000001_0_0001 (protein)
chain: SSSSSSEELRQYHEELEELTEEGDKDRVIELLQEALRAAYQNRDEEILQLLWEIAKEVAKSSSSS
B11: il10ra_site1_normal_mot_HHH_b1_07380_000000129_0001_1_20_H_._HHH_b1_02603_0001_0000100003_0000001_0 (protein)
chain: SSSSDEAEEIYELSRKAAEALAEGNPEEARELVEQALELAEEANNFALAFALRLLLRQINSSSSS
B12: il10ra_site1_normal_mot_HHH_b1_03900_000000129_0001_1_16_H_._HHH_b1_02560_0001_0000400024_0000001_0 (protein)
chain: SSSSREEVYRLVKEIARALIRNDPELVERLLEELREVVEEYNDKAAEELLRILEEAFRATTSSSS
B13: il10ra_site1_normal_mot_HHH_b1_08697_af2_000000298_0001_1_18_H_._HHH_b1_07013_0001_0000400015_0000001_1_af2pred_0001 (protein)
chain: SSSSSERAIKLHLLLARLAFELNDRKALEAATHAARALVKRFKDPELEELLREIEELLEELSSSS
B14: il10ra_site1_sap_21_mot_HHH_b1_05357_000000034_0001_23_39_H_._HHH_b2_05349_0001_0000600054_0000001_0_0001_af2pred_0001 (protein)
chain: SSSSNREQRVAELLARALRAAAEGNPEEAERLLEEARELAEELNDEELERAIEILKRYVERSSSS
B15: il10ra_site1_normal_mot_ems_3hM_3637_000000290_0001_1_19_H_._HHH_b2_03486_0001_0000200022_0000001_0 (protein)
chain: SSSSREEAEEAYELLREALELRAEGDEEEAKRVLQEAFEVAEEGGNQAILFAIEYLLEKLNSSSS
B16: il10ra_site1_sap_13_mot_HHH_b2_04275_000000272_0001_20_36_H_._HHH_b1_05781_0001_0000400050_0000002_1_0001_af2pred_0001 (protein)
chain: SSSSSKEVKAAKLTIRALEAAANGDPEEARELLEQAKELAEELNDEELQRIIENSEEQVNSSSSS
B17: il10ra_site1_sap_4_mot_HHH_b1_06788_af2_000000238_0001_19_36_H_._HHH_b1_07633_0001_0000100010_0000001_0_0001 (protein)
chain: DEELEHLLELLEKLLPPELRRAVRFWLHILEMGVVPPERVIQALEVMARAAGDPEVERLLEEVKK
B18: il10ra_site1_sap_11_mot_HHH_b2_00943_af2_000000149_0001_1_17_H_._654b43168d24a4fb17a944576add0ed3_0001_af2_0001_0000500018_0000002_0_0001 (protein)
chain: SSSSSDEEELEELIREIEELLKNGNPKEAVRLAQRAVRLAYRLNDEEALRELWELVQEAGSSSSS
B19: il10ra_site1_normal_mot_HHH_b2_08186_000000021_0001_43_56_H_._HHH_b1_02298_af2_0002_0000300029_0000001_0 (protein)
chain: SSSSDEEVEELIQEAEELLERGNPEEALEVVRRALQLAFELGDAELLQRLWELLKRIAKLSSSSS

The experiment concerns the target il10ra, Q13651. The experiment is described as follows: yeast display titration.
With B1, the “apparent Kd” value is “inactive: no binding seen”.
The same measure for B2: “inactive: no binding seen”; for B3: “inactive: no binding seen”.
With B4 the entry was “inactive: no binding seen”; with B5, “inactive: no binding seen”; with B6, “inactive: no binding seen”.
With B7 the entry was “inactive: no binding seen”.
For B8, the “apparent Kd” value was “inactive: no binding seen”.
The same measure for B9: “inactive: no binding seen”; for B10: “inactive: no binding seen”.
The same measure for B11: “inactive: no binding seen”.
The same measure for B12: “inactive: no binding seen”; for B13: inactive: > 279 nM.
As for B14, the “apparent Kd” value was “inactive: no binding seen”.
The same measure for B15: “inactive: no binding seen”.
The same measure for B16: “inactive: no binding seen”.
With B17 the entry was “inactive: no binding seen”.
Turning to B18, the “apparent Kd” value was “inactive: no binding seen”.
With B19 the entry was “inactive: no binding seen”.
